Source: paper doi:10.1101/2025.11.12.688075
No constants are given. Whether binding was seen depends on the method and setting. Binding seen in cells or lysates may run through a third protein. A yes stands for co-enrichment or nearness to the bait. Other partners may have been found. A no says only that the protein was not detected with the bait.

Target: T1, TurboID-FGF13-S (human) (UniProt Q92913)
T1 sequence: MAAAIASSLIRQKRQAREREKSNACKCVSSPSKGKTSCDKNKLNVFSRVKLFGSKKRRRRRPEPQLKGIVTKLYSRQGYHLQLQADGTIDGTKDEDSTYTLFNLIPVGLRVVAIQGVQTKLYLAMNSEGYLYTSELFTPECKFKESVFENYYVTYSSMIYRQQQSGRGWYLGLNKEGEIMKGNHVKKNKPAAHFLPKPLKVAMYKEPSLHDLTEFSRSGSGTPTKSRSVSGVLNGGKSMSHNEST
Assay: proximity labelling

- binding: no binding
Substance: Sodium channel regulatory subunit β1 (from UniProt P97952 19-218)
